One substance from PMC10799361 can be followed below.

Protein sequences, listed by entry. Tags and fused reporters are not part of them. Residues count along the entry.
UniProt Q9QUK6, residues 26-835: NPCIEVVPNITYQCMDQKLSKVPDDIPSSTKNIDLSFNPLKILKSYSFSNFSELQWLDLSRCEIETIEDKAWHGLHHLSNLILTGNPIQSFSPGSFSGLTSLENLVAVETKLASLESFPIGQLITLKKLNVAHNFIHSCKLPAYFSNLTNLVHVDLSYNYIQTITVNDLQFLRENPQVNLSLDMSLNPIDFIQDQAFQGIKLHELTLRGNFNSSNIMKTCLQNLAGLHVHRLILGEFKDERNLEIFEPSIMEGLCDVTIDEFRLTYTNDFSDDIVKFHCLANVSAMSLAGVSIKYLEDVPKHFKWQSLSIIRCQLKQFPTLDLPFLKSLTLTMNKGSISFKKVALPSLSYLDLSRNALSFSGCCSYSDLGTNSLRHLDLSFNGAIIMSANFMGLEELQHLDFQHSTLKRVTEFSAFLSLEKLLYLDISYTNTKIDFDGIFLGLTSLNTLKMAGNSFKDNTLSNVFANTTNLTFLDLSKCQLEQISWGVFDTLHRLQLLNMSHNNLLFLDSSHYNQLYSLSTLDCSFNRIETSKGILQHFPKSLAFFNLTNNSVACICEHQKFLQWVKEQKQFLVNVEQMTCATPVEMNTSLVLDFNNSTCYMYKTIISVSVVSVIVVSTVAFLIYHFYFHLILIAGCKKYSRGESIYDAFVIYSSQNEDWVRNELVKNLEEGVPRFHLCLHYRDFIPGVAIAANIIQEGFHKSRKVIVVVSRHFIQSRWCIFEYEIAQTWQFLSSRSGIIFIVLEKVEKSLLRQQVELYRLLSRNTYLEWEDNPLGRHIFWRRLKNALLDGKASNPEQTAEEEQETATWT

This experiment has as its target T1, Myeloid differentiation protein 2 (mouse (endogenous in lung tissue of C57BL/6 mice)) (UniProt Q9JHF9).
T1 sequence: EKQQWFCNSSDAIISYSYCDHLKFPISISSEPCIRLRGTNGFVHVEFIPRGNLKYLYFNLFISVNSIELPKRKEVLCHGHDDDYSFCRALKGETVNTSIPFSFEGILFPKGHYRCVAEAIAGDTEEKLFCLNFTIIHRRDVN
As to the kind of experiment: co-IP; 300 ug protein of mouse lung tissue lysate; MD2 antibody overnight at 4 °C, protein A + G agarose, four washes with ice-cold PBS, Western blot for TLR4; mice of the groups CON, L6H21, OVA, OVA + L6H21 (10 mg/kg), OVA + L6H21 (20 mg/kg).

Results are given in words; binding and its absence hold for the method and conditions named. In cells and extracts the contact can be indirect. Some results given as binding are weak or reduced against the parent protein; the word gives no strength.

For “toll-like receptor 4 (from UniProt Q9QUK6 26-835)”, the binding entry is “binds”.
